# Test results from the supplement of paper PMC12823440, “Inhibitors supercharge kinase turnover through native proteolytic circuits” (Nature, 2025).
# Amino acid sequences for entries named in this document (tags omitted). A change or cut given only in a name is not applied to a line headed by its entry.
# UniProt Q9UBF8: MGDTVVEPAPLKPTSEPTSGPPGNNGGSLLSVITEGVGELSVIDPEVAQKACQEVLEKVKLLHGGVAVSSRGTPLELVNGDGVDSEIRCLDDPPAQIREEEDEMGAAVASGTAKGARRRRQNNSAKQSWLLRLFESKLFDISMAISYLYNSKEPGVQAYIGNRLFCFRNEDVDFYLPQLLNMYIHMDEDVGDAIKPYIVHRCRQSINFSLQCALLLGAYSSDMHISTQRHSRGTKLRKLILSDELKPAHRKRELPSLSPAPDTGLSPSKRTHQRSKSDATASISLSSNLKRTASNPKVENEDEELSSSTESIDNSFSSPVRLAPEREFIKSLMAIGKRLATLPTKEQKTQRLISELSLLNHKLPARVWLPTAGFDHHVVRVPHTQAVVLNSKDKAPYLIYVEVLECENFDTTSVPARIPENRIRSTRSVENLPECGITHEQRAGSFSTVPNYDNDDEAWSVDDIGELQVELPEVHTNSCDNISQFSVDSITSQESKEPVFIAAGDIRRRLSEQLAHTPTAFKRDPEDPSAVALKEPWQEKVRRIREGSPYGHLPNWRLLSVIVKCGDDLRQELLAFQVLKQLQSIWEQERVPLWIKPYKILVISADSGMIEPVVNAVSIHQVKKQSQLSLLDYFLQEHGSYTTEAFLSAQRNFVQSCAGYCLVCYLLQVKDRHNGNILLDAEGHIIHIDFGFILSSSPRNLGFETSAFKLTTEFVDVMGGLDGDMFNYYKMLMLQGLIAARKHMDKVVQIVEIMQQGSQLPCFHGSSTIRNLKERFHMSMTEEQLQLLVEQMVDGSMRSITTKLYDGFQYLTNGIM
# UniProt Q13131: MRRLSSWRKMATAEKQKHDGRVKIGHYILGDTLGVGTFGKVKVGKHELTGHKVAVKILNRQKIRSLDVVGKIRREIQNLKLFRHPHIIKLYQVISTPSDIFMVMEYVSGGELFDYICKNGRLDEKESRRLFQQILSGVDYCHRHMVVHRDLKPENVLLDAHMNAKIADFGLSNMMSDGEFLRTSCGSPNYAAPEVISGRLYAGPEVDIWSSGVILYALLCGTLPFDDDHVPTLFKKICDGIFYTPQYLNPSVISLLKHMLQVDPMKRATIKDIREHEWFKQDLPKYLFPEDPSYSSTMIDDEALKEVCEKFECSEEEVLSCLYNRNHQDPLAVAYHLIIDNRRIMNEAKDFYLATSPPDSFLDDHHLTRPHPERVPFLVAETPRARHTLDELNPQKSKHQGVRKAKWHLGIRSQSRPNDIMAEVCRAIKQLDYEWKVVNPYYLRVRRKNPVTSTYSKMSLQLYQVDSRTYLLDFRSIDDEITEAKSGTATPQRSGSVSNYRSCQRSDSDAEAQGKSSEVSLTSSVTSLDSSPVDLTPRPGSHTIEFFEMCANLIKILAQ
# UniProt Q05397, whole entry, looked up: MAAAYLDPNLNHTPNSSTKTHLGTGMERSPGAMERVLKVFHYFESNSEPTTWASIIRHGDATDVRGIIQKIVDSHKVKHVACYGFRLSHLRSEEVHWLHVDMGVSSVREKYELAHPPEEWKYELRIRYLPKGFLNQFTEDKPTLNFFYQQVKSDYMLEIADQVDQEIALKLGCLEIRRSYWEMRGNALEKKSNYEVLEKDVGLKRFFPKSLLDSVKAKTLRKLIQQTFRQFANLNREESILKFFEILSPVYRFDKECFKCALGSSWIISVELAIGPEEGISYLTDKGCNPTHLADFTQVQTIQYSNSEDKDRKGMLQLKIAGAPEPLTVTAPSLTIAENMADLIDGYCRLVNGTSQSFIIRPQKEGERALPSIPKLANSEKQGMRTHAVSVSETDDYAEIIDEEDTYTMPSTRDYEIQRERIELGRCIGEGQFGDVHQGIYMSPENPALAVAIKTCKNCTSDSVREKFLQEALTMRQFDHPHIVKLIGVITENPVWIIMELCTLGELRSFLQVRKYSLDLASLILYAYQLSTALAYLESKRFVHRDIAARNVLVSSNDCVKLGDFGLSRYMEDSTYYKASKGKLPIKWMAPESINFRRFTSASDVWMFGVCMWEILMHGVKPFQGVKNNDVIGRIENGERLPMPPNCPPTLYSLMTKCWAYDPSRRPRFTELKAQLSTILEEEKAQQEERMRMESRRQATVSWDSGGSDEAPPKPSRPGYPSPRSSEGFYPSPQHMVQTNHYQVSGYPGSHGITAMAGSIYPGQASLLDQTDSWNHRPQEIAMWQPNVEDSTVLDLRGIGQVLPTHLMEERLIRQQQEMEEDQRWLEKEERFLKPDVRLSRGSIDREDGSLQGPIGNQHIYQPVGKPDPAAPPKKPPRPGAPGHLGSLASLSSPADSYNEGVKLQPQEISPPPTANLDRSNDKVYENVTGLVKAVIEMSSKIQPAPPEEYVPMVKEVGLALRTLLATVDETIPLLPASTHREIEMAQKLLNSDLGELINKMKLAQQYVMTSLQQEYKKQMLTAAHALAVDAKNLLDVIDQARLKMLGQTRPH
# UniProt Q14289, whole entry, looked up: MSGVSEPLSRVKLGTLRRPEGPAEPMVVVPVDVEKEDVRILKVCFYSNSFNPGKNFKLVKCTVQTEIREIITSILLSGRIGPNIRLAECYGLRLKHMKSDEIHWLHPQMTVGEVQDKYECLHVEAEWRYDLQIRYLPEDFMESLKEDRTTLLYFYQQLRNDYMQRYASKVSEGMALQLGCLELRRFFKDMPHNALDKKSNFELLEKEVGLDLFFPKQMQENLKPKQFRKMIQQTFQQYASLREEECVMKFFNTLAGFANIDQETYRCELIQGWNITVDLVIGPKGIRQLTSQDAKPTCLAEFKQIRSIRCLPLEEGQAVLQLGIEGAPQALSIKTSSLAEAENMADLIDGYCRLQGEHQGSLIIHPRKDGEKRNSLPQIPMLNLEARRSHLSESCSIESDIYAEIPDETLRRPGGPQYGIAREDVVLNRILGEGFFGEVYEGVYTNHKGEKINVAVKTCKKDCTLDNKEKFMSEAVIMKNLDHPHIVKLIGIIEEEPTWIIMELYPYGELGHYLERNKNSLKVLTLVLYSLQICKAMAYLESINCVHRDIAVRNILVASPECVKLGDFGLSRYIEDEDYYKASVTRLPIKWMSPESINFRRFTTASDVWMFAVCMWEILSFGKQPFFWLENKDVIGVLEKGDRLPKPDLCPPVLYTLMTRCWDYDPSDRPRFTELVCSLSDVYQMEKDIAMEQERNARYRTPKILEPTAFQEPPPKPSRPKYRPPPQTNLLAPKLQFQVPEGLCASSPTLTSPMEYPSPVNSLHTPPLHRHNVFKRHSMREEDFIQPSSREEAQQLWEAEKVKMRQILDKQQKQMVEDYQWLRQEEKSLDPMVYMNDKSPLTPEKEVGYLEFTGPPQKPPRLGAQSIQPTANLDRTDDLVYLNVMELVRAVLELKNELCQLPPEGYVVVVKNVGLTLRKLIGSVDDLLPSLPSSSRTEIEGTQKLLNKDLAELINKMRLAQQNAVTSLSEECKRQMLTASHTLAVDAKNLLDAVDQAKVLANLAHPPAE
# UniProt P07949, whole entry, looked up: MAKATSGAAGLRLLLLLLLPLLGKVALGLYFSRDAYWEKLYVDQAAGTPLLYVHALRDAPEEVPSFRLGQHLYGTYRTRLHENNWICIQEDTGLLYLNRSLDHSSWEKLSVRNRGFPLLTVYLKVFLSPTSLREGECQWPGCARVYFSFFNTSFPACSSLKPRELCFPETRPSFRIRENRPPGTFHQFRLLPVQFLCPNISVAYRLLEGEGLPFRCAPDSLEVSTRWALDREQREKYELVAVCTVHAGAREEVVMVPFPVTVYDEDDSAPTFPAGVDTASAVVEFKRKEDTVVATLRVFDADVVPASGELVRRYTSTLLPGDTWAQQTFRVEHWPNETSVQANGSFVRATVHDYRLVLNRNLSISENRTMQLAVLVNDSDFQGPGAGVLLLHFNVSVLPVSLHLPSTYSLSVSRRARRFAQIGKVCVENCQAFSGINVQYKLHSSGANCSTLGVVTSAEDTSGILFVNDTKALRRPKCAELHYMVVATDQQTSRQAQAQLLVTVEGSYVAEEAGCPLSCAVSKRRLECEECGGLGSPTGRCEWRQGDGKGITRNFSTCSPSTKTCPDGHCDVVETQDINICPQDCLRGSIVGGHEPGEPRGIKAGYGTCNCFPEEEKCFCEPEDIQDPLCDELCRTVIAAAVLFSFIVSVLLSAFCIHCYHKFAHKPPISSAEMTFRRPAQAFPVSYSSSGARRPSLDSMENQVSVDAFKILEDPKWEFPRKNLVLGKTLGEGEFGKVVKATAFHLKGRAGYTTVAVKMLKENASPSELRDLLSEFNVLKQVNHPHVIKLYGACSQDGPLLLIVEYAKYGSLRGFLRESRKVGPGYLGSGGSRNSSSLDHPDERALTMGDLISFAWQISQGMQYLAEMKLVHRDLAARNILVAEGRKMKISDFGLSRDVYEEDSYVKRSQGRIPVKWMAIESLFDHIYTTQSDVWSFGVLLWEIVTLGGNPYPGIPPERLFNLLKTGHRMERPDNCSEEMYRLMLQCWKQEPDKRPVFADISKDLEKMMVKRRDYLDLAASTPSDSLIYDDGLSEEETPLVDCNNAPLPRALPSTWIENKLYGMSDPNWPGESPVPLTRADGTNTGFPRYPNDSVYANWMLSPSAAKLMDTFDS
# UniProt P07949, whole entry M918T, looked up: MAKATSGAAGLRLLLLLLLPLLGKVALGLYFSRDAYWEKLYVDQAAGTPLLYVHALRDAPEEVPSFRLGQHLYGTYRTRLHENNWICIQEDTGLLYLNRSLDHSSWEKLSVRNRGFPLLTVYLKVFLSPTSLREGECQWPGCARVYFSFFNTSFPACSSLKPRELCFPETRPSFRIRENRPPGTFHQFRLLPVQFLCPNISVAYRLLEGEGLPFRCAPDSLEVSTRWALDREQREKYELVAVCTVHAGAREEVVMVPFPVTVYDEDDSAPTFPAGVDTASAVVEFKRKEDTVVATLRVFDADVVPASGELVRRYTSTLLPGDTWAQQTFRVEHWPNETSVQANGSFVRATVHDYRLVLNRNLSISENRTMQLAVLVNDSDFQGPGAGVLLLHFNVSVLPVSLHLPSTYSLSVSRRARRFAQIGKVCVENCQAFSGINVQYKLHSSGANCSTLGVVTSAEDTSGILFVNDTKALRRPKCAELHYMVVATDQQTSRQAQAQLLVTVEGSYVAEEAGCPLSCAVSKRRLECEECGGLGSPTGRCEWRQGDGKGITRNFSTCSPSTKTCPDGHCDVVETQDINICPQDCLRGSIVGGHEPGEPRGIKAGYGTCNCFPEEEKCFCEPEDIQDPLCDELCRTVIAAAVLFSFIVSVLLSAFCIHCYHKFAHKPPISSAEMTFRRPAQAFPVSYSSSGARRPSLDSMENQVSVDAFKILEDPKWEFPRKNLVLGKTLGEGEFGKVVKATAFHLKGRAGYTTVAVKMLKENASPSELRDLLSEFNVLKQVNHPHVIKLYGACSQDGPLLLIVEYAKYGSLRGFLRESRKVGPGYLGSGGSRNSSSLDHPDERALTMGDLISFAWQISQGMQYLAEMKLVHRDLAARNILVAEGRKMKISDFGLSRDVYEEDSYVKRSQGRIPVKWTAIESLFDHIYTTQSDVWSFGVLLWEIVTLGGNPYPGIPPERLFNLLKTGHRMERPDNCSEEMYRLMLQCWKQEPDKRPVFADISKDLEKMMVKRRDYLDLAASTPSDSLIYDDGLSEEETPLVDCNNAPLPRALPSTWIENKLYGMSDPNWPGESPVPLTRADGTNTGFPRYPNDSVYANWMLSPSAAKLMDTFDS
# UniProt Q9NYA1, whole entry: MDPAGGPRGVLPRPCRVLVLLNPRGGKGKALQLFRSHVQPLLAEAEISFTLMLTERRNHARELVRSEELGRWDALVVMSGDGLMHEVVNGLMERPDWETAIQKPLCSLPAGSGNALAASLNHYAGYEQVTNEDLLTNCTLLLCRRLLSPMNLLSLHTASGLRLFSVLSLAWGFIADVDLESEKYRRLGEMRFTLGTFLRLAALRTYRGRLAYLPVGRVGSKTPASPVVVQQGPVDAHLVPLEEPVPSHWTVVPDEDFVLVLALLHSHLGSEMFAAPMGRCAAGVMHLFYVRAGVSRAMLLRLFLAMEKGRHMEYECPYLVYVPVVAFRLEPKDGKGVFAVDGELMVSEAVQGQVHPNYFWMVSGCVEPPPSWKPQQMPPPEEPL
# UniProt Q9Y6E0: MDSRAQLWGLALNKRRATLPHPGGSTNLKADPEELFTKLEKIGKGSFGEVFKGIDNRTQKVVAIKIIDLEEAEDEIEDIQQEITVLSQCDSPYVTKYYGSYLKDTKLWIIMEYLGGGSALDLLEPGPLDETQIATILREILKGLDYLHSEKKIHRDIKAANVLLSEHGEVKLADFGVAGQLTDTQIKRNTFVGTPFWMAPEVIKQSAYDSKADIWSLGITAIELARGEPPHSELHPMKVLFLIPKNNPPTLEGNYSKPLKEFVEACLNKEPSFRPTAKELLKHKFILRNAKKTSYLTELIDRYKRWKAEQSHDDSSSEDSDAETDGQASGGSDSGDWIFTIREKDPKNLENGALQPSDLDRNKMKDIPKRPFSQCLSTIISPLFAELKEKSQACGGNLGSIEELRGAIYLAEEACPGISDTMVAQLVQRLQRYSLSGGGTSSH
# Structures can show the parent of a compound that is named as a salt. The list shows a part of the results. The calls rarely recur for the same compound in another form.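 In K562 cells expressing nanoluciferase-fused kinases, luminescence was recorded at 4 h intervals between 2 and 18 h, normalized as percent of control with DMSO at 100% and a positive control at 0%. A significant (2 sigma) signal drop marks a time point as decreased. The authors' rule for a hit is not shown and takes in more than the number of time points.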
# What was measured:
# Assay in all cases: kinase-Nluc reporter destabilization hit call (1 = scored as downregulated) (binary); higher = compound decreases kinase abundance
# Details in all cases: K562, 2-18 h
# PDPK1 = PDPK1 (UniProt O15530)
# PIK4CA = PIK4CA (UniProt P42356)
# PIK4CB = PIK4CB (UniProt Q9UBF8)
# PLK1 = PLK1 (UniProt P53350)
# PRKAA1 = PRKAA1 (UniProt Q13131)
# PRKCA = PRKCA (UniProt P17252)
# PTK2 = PTK2 (UniProt Q05397)
# PTK2B = PTK2B (UniProt Q14289)
# RAF1 = RAF1 (UniProt P04049)
# [1] = biological target: RAF1_S257L (clone: RAF1_mut) (UniProt P04049)
# RET = RET (UniProt P07949)
# [2] = biological target: RET_M918T (clone: RET_mut) (UniProt P07949)
# RIOK1 = RIOK1 (UniProt Q9BRS2)
# RIPK1 = RIPK1 (UniProt Q13546)
# RIPK2 = RIPK2 (UniProt O43353)
# ROR2 = ROR2 (UniProt Q01974)
# RPS6KA1 = RPS6KA1 (UniProt Q15418)
# SPHK1 = SPHK1 (UniProt Q9NYA1)
# SRC = SRC (UniProt P12931)
# STK24 = STK24 (UniProt Q9Y6E0)
SMILES,kinase-Nluc reporter destabilization hit call (PDPK1; 10 µM),kinase-Nluc reporter destabilization hit call (PIK4CA; 10 µM),kinase-Nluc reporter destabilization hit call (PIK4CB; 10 µM),kinase-Nluc reporter destabilization hit call (PLK1; 10 µM),kinase-Nluc reporter destabilization hit call (PRKAA1; 10 µM),kinase-Nluc reporter destabilization hit call (PRKCA; 10 µM),kinase-Nluc reporter destabilization hit call (PTK2; 10 µM),kinase-Nluc reporter destabilization hit call (PTK2B; 10 µM),kinase-Nluc reporter destabilization hit call (RAF1; 10 µM),kinase-Nluc reporter destabilization hit call ([1]; 10 µM),kinase-Nluc reporter destabilization hit call (RET; 10 µM),kinase-Nluc reporter destabilization hit call ([2]; 10 µM),kinase-Nluc reporter destabilization hit call (RIOK1; 10 µM),kinase-Nluc reporter destabilization hit call (RIPK1; 10 µM),kinase-Nluc reporter destabilization hit call (RIPK2; 10 µM),kinase-Nluc reporter destabilization hit call (ROR2; 10 µM),kinase-Nluc reporter destabilization hit call (RPS6KA1; 10 µM),kinase-Nluc reporter destabilization hit call (SPHK1; 10 µM),kinase-Nluc reporter destabilization hit call (SRC; 10 µM),kinase-Nluc reporter destabilization hit call (STK24; 10 µM),kinase-Nluc reporter destabilization hit call (PDPK1; 2.5 µM),kinase-Nluc reporter destabilization hit call (PIK4CA; 2.5 µM),kinase-Nluc reporter destabilization hit call (PIK4CB; 2.5 µM),kinase-Nluc reporter destabilization hit call (PLK1; 2.5 µM),kinase-Nluc reporter destabilization hit call (PRKAA1; 2.5 µM),kinase-Nluc reporter destabilization hit call (PRKCA; 2.5 µM),kinase-Nluc reporter destabilization hit call (PTK2; 2.5 µM),kinase-Nluc reporter destabilization hit call (PTK2B; 2.5 µM),kinase-Nluc reporter destabilization hit call (RAF1; 2.5 µM),kinase-Nluc reporter destabilization hit call ([1]; 2.5 µM),kinase-Nluc reporter destabilization hit call (RET; 2.5 µM),kinase-Nluc reporter destabilization hit call ([2]; 2.5 µM),kinase-Nluc reporter destabilization hit call (RIOK1; 2.5 µM),kinase-Nluc reporter destabilization hit call (RIPK1; 2.5 µM),kinase-Nluc reporter destabilization hit call (RIPK2; 2.5 µM),kinase-Nluc reporter destabilization hit call (ROR2; 2.5 µM),kinase-Nluc reporter destabilization hit call (RPS6KA1; 2.5 µM),kinase-Nluc reporter destabilization hit call (SPHK1; 2.5 µM),kinase-Nluc reporter destabilization hit call (SRC; 2.5 µM),kinase-Nluc reporter destabilization hit call (STK24; 2.5 µM)
Oc1cccc(-c2nc(N3CCOCC3)c3oc4ncccc4c3n2)c1,inactive: 0,inactive: 0,inactive: 0,inactive: 0,inactive: 0,inactive: 0,inactive: 0,inactive: 0,inactive: 0,inactive: 0,inactive: 0,inactive: 0,inactive: 0,inactive: 0,inactive: 0,inactive: 0,inactive: 0,inactive: 0,inactive: 0,inactive: 0,,,,,,,,,,,,,,,,,,,,
N=C(N)NC(=O)c1nc(Cl)c(N)nc1N [Amiloride (hydrochloride)],inactive: 0,inactive: 0,inactive: 0,inactive: 0,inactive: 0,inactive: 0,inactive: 0,inactive: 0,inactive: 0,inactive: 0,inactive: 0,inactive: 0,inactive: 0,inactive: 0,inactive: 0,inactive: 0,inactive: 0,inactive: 0,inactive: 0,inactive: 0,,,,,,,,,,,,,,,,,,,,
COCCOc1cc(F)c2c(Nc3ccc(NC(=O)Cn4cc(C(C)C)nn4)cc3)ncnc2c1 [AZD3229 Tosylate],inactive: 0,inactive: 0,inactive: 0,inactive: 0,inactive: 0,inactive: 0,inactive: 0,inactive: 0,inactive: 0,inactive: 0,inactive: 0,inactive: 0,inactive: 0,inactive: 0,inactive: 0,inactive: 0,inactive: 0,inactive: 0,inactive: 0,inactive: 0,,,,,,,,,,,,,,,,,,,,
COc1cc2c(-c3cnn4cc(N5CCC(N6CCN(C)CC6)CC5)cnc34)ccnc2cc1F,inactive: 0,inactive: 0,inactive: 0,inactive: 0,inactive: 0,inactive: 0,inactive: 0,inactive: 0,inactive: 0,inactive: 0,inactive: 0,inactive: 0,inactive: 0,inactive: 0,inactive: 0,inactive: 0,inactive: 0,inactive: 0,inactive: 0,inactive: 0,,,,,,,,,,,,,,,,,,,,
CC(C)Nc1cc(-c2c[nH]c(C(=O)N[C@H](CO)c3cccc(Cl)c3)c2)c(Cl)cn1 [Ulixertinib (hydrochloride)],inactive: 0,inactive: 0,inactive: 0,inactive: 0,inactive: 0,inactive: 0,inactive: 0,inactive: 0,inactive: 0,inactive: 0,inactive: 0,inactive: 0,inactive: 0,inactive: 0,inactive: 0,inactive: 0,inactive: 0,inactive: 0,inactive: 0,inactive: 0,,,,,,,,,,,,,,,,,,,,
C=CC(=O)Nc1cc2c(Nc3ccc(F)c(Cl)c3)ncnc2cc1C#CC(C)(C)N1CCN(C)CC1 [AV-412 (free base)],,,,,,,,,,,,,,,,,,,,,inactive: 0,inactive: 0,inactive: 0,inactive: 0,inactive: 0,inactive: 0,inactive: 0,inactive: 0,inactive: 0,inactive: 0,inactive: 0,inactive: 0,inactive: 0,inactive: 0,inactive: 0,inactive: 0,inactive: 0,inactive: 0,inactive: 0,inactive: 0
COc1ccnc(C[S+]([O-])c2nc3cc(-n4cccc4)ccc3[nH]2)c1C (stereo not given) [Ilaprazole (sodium)],inactive: 0,inactive: 0,inactive: 0,inactive: 0,inactive: 0,inactive: 0,inactive: 0,inactive: 0,inactive: 0,inactive: 0,inactive: 0,inactive: 0,inactive: 0,inactive: 0,inactive: 0,inactive: 0,inactive: 0,inactive: 0,inactive: 0,inactive: 0,,,,,,,,,,,,,,,,,,,,
COc1ccc(S(=O)(=O)N(CCO)c2ccccc2CN(C)C/C=C/c2ccc(Cl)cc2)cc1 [KN-93 (hydrochloride)],,,,,,,,,,,,,,,,,,,,,inactive: 0,inactive: 0,inactive: 0,inactive: 0,inactive: 0,inactive: 0,inactive: 0,inactive: 0,inactive: 0,inactive: 0,inactive: 0,inactive: 0,inactive: 0,inactive: 0,inactive: 0,inactive: 0,inactive: 0,inactive: 0,inactive: 0,inactive: 0
C#Cc1cccc(Nc2ncnc3cc(OCCOC)c(OCCO)cc23)c1 [Desmethyl Erlotinib (hydrochloride)],inactive: 0,inactive: 0,inactive: 0,inactive: 0,active: 1,inactive: 0,inactive: 0,inactive: 0,inactive: 0,inactive: 0,inactive: 0,inactive: 0,inactive: 0,inactive: 0,inactive: 0,inactive: 0,inactive: 0,inactive: 0,inactive: 0,inactive: 0,,,,,,,,,,,,,,,,,,,,
